The target of one experiment is T1, BirA*-MCM8IP (human) (UniProt Q8N3J3).
T1 sequence: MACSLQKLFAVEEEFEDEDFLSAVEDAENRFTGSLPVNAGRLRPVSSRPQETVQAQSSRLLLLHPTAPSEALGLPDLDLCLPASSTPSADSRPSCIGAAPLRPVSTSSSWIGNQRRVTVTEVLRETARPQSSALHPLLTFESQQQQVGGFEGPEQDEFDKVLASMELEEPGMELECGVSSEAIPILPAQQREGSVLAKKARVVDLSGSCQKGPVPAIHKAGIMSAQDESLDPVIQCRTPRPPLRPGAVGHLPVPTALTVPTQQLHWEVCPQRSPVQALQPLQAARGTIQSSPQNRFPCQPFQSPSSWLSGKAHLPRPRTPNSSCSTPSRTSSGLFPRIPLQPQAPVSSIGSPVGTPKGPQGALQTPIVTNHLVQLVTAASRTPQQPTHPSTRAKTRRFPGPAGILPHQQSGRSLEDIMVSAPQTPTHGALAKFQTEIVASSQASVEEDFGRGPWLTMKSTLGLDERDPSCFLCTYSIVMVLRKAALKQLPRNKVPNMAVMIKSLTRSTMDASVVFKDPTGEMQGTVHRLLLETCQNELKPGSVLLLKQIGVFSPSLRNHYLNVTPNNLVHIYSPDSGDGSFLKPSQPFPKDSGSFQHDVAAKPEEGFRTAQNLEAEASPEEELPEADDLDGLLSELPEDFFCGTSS
The experiment can be described thus: proximity labelling; BioID with mass spectrometry: BirA*-MCM8IP or MCM8IP-BirA* against BirA* alone in HU-treated HEK293T T-REx; RIPA lysis, streptavidin beads; at least 5-fold enriched.

Protein sequences, listed by entry. Tags and fused reporters are not part of them.
UniProt P27694: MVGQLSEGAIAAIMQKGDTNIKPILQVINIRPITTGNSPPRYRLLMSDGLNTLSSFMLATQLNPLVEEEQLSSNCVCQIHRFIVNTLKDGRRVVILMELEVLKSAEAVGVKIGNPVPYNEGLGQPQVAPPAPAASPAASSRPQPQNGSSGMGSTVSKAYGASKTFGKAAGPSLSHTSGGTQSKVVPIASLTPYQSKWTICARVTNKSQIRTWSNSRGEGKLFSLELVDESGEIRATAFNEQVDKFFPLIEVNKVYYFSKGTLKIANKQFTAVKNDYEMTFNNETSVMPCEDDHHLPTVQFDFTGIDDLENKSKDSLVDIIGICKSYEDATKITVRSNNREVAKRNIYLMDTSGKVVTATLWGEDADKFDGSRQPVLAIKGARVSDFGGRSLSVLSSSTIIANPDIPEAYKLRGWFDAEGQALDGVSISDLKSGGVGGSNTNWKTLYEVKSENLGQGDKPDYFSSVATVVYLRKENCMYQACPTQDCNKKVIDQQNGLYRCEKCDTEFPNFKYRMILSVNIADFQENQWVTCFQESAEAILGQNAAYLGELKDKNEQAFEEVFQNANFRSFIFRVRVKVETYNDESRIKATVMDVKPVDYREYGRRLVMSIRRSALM

Another experiment addresses T2, MCM8IP-BirA* (human) (UniProt Q8N3J3).
T2 sequence: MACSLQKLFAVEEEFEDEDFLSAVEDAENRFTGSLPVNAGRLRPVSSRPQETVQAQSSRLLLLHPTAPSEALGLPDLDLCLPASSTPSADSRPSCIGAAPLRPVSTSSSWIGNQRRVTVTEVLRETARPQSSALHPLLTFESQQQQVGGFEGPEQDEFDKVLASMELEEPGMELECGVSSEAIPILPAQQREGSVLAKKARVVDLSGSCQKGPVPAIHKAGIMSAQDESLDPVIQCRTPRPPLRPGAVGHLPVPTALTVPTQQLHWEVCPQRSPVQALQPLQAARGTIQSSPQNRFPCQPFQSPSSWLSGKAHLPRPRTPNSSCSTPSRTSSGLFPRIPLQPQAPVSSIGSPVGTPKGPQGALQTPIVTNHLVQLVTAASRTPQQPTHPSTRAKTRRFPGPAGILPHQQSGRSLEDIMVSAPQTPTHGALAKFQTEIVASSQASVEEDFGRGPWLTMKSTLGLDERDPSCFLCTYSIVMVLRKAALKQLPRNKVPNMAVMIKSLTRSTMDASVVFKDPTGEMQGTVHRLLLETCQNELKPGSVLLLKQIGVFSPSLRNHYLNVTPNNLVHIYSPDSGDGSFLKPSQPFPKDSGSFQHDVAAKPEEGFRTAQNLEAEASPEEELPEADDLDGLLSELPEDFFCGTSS
The experiment is described as above.

A further experiment has as its target T3, MCM8IP-HA (human) (UniProt Q8N3J3).
T3 sequence: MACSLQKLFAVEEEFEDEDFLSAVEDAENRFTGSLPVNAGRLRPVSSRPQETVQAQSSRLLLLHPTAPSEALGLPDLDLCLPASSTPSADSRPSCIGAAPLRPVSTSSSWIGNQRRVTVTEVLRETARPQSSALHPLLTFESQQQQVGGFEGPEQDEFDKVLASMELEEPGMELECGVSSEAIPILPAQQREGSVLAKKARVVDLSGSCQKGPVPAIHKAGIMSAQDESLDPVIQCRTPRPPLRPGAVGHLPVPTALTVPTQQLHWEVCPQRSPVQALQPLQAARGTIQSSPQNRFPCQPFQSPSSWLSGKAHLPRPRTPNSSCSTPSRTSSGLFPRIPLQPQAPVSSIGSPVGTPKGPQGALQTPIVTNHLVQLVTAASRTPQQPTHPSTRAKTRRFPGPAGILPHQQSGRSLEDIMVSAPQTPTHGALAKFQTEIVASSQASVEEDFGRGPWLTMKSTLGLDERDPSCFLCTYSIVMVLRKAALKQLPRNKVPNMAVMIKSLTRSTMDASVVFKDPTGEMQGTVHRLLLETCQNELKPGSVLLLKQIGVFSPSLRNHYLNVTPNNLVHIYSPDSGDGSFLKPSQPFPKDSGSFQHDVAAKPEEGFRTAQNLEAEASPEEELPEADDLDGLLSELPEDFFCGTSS
The experiment can be described thus: affinity purification with mass spectrometry; anti-HA immunoprecipitation from HEK293T stably expressing MCM8IP-FLAG-HA against GFP-FLAG-HA; gel slices, LC-MS/MS; at least 5-fold enriched.

Experiment [1] concerns the target BirA*-RPA1 (UniProt P27694). The experiment is described as follows: proximity labelling; BioID with mass spectrometry: BirA*-RPA1 against BirA* alone in HU-treated HEK293T T-REx; lysis in 6 M urea, streptavidin beads; two or more peptides, at least 3-fold enriched.
Experiment [2] has as its target BirA*-RPA1 (UniProt P27694). The experiment can be described thus: proximity labelling; small-scale BioID: doxycycline-induced BirA* fusion in HEK293T T-REx, 50 µM biotin 18-24 h, untreated or with HU, cisplatin or olaparib; RIPA lysis, streptavidin beads, western blot. (A western blot detects proteins with antibodies after separation by electrophoresis.)

Results are given in words; binding and its absence hold for the method and conditions named. Binding seen in cells or lysates may run through a third protein. Here binding means that the protein was enriched with, or labelled near, the bait; the list need not be complete. For some assays here: Where a sequence is shown, tags or fusion partners need not be part of it.

B1: SMARCAL1 (protein, UniProt Q9NZC9 1-954)
chain: MSLPLTEEQRKKIEENRQKALARRAEKLLAEQHQRTSSGTSIAGNPFQAKQGPSQNFPRESCKPVSHGVIFKQQNLSSSSNADQRPHDSHSFQAKGIWKKPEEMPTACPGHSPRSQMALTGISPPLAQSPPEVPKQQLLSYELGQGHAQASPEIRFTPFANPTHKPLAKPKSSQETPAHSSGQPPRDAKLEAKTAKASPSGQNISYIHSSSESVTPRTEGRLQQKSGSSVQKGVNSQKGKCVRNGDRFQVLIGYNAELIAVFKTLPSKNYDPDTKTWNFSMNDYSALMKAAQSLPTVNLQPLEWAYGSSESPSTSSEGQAGLPSAPSLSFVKGRCMLISRAYFEADISYSQDLIALFKQMDSRRYDVKTRKWSFLLEEHSKLIAKVRCLPQVQLDPLPTTLTLAFASQLKKTSLSLTPDVPEADLSEVDPKLVSNLMPFQRAGVNFAIAKGGRLLLADDMGLGKTIQAICIAAFYRKEWPLLVVVPSSVRFTWEQAFLRWLPSLSPDCINVVVTGKDRLTAGLINIVSFDLLSKLEKQLKTPFKVVIIDESHFLKNSRTARCRAAMPVLKVAKRVILLSGTPAMSRPAELYTQIIAVKPTFFPQFHAFGLRYCDAKRMPWGWDYSGSSNLGELKLLLEEAVMLRRLKSDVLSQLPAKQRKIVVIAPGRINARTRAALDAAAKEMTTKDKTKQQQKDALILFFNRTAEAKIPSVIEYILDLLESGREKFLVFAHHKVVLDAITQELERKHVQHIRIDGSTSSAEREDLCQQFQLSERHAVAVLSITAANMGLTFSSADLVVFAELFWNPGVLIQAEDRVHRIGQTSSVGIHYLVAKGTADDYLWPLIQEKIKVLAEAGLSETNFSEMTESTDYLYKDPKQQKIYDLFQKSFEKEGSDMELLEAAESFDPGSASGTSGSSSQNMGDTLDESSLTASPQKKRRFEFFDNWDSFTSPL
With B1, the binding entry with BirA*-MCM8IP (human), with MCM8IP-BirA* (human) and with MCM8IP-HA (human) was “binds” each time.

B2: MCM8IP (endogenous) (protein, UniProt Q8N3J3 1-647)
chain: MACSLQKLFAVEEEFEDEDFLSAVEDAENRFTGSLPVNAGRLRPVSSRPQETVQAQSSRLLLLHPTAPSEALGLPDLDLCLPASSTPSADSRPSCIGAAPLRPVSTSSSWIGNQRRVTVTEVLRETARPQSSALHPLLTFESQQQQVGGFEGPEQDEFDKVLASMELEEPGMELECGVSSEAIPILPAQQREGSVLAKKARVVDLSGSCQKGPVPAIHKAGIMSAQDESLDPVIQCRTPRPPLRPGAVGHLPVPTALTVPTQQLHWEVCPQRSPVQALQPLQAARGTIQSSPQNRFPCQPFQSPSSWLSGKAHLPRPRTPNSSCSTPSRTSSGLFPRIPLQPQAPVSSIGSPVGTPKGPQGALQTPIVTNHLVQLVTAASRTPQQPTHPSTRAKTRRFPGPAGILPHQQSGRSLEDIMVSAPQTPTHGALAKFQTEIVASSQASVEEDFGRGPWLTMKSTLGLDERDPSCFLCTYSIVMVLRKQAALKQLPRNKVPNMAVMIKSLTRSTMDASVVFKDPTGEMQGTVHRLLLETCQNELKPGSVLLLKQIGVFSPSLRNHYLNVTPNNLVHIYSPDSGDGSFLKPSQPFPKDSGSFQHDVAAKPEEGFRTAQNLEAEASPEEELPEADDLDGLLSELPEDFFCGTSS
On to B2, for which the binding result with BirA*-RPA1 [1] and with BirA*-RPA1 [2] was “binds” each time.

Values taken from publication PMC7290032.
